Results from article PMC6441012.
No constants are given. Whether binding was seen depends on the method and setting. Binding seen in cells or lysates may run through a third protein. Sequences can lack the tags named with a protein.

T1: Cox8-His (S. cerevisiae (endogenous in GA74-1A)) (UniProt P04039)
T1 sequence: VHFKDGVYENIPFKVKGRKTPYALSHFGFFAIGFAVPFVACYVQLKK


Molecular target: T1, Cox8-His (S. cerevisiae (endogenous in GA74-1A))
Test: pull-down; Ni-NTA agarose affinity purification of Cox8-His from 2% (w/v) SMA extracts of osmotically ruptured mitochondria (20 mM HEPES-KOH pH 8.0, 200 mM NaCl, 4 °C), washed with 10 and 20 mM imidazole, eluted with 60 mM imidazole; eluates (SMA nanodiscs) immunoblotted; Cox8-His in WT, psd1Δ, psd2Δ, psd1Δpsd2Δ, IM-Psd1, OM-Psd1 and ER-Psd1 strains

Row | binding | Binder
1 | no binding | OM45 (protein, UniProt P16547 1-393) MSSRIIVGSAALAAAITASIMVREQKAKGQRREGNVSAYYNGQEYGSSAPPQLGKLHNIKQGIKEDALSLKDALLGVSQKAREEAPKVTKRVISPEEDAQTRKQLGQKAKDSSSQSIFNWGFSEAERRKAIAIGEFDTAKKRFEEAVDRNEKELLSTVMREKKAALDRASIEYERYGRARDFNELSDKLDQQERNSNPLKRLLKNNTGDANTEEAAARSVQGWGDTAQEFGREELEEAKRNASSEPSEAQKRLDELKKIKEKGWFGYNKGEQSEQQIAERVARGLEGWGETAAQLSKDEMDDLRWNYENSKKQLDKNVSDAMDSLSKAKEDLKQYGSHWWSGWTSKVDNDKQALKDEAQKKYDEALKKYDEAKNKFKEWNDKGDGKFWSSKKD
2 | no binding | Tom70 (protein, UniProt P07213 1-617) MKSFITRNKTAILATVAATGTAIGAYYYYNQLQQQQQRGKKNTINKDEKKDTKDSQKETEGAKKSTAPSNPPIYPVSSNGEPDFSNKANFTAEEKDKYALALKDKGNQFFRNKKYDDAIKYYNWALELKEDPVFYSNLSACYVSVGDLKKVVEMSTKALELKPDYSKVLLRRASANEGLGKFADAMFDLSVLSLNGDFNDASIEPMLERNLNKQAMSKLKEKFGDIDTATATPTELSTQPAKERKDKQENLPSVTSMASFFGIFKPELTFANYDESNEADKELMNGLSNLYKRSPESYDKADESFTKAARLFEEQLDKNNEDEKLKEKLAISLEHTGIFKFLKNDPLGAHEDIKKAIELFPRVNSYIYMALIMADRNDSTEYYNYFDKALKLDSNNSSVYYHRGQMNFILQNYDQAGKDFDKAKELDPENIFPYIQLACLAYRENKFDDCETLFSEAKRKFPEAPEVPNFFAEILTDKNDFDKALKQYDLAIELENKLDGIYVGIAPLVGKATLLTRNPTVENFIEATNLLEKASKLDPRSEQAKIGLAQMKLQQEDIDEAITLFEESADLARTMEEKLQAITFAEAAKVQQRIRSDPVLAKKIQETLAKLREQGLM
